Some of the results follow. The main result of the screen is listed elsewhere. These columns were measured beside it and carry no call. Compounds called inactive in the main read-out are mostly missing here. Potencies come from curve fits of mixed quality, noted in brackets.
Assay: qHTS Assay for Lipid Storage Modulators in Drosophila S3 Cells;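 on cell number change: cells counted by Cell Tracker Red CMTPX staining in the red channel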
Conditions: BODIPY lipid droplet fluorescence, 18-24 h; for cell number change: measured here: cell count max response, cells fed with added oleic acid
In short: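 Laser-scanning cytometry quantifies lipid droplet accumulation (500–530 nm total intensity; droplet/cell object ratio) in oleic acid-fed (400 uM added) Drosophila S3 cells treated with a concentration series. 20 uM Triacsin C defined 100% inhibition.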

[1] = measured here: lipid fluorescence (Fed channel) AC50, cells fed with added oleic acid
[2] = measured here: cell number channel AC50, cells fed with added oleic acid

Row | Compound | cell number change [%] | AC50 [1] | AC50 [2]
1 | COc1cc(NC(=O)CCc2nnc3ccc(N4CCOCC4)nn23)cc(OC)c1OC | 4.2 | 29.1 µM [falling, single point] | 
2 | C=CCC(C(=O)NC(C)c1ccccc1)C(=O)NC(C)c1ccccc1 (stereo unspecified) | -20.6 | 5.8 µM [falling, partial curve] | 
3 | Cc1ccc(S(=O)(=O)NCC(=O)N2CCN(c3ccccn3)CC2)cc1 | 9.37 |  | 
4 | CCCC1Cc2c(sc3nc(SC)nc(N)c23)CO1 (stereo unspecified) | 1.93 | 0.146 µM [falling, full curve, poor fit] | 
5 | Cc1ccc(-n2c(SCC(=O)NCC3CCCO3)nc3ccccc3c2=O)cc1C (stereo unspecified) |  |  | 6.51 µM [rising, single point]
6 | CCN(CC)CCCn1c2c(c(SCC(=O)N3CCCc4ccccc43)nc1=O)CCC2 | -40.1 | 0.517 µM [falling, partial curve, poor fit] | 9.2 µM [falling, partial curve]
7 | O=C(Nc1ccc(-n2cnnn2)cc1)C1CCCN1C(=O)Nc1ccc(Br)cc1 (stereo unspecified) | 21.9 | 6.51 µM [falling, single point] | 
8 | CN(C)/C=C(\c1cnc(Cl)s1)S(=O)(=O)c1ccccc1 | -36.6 | 29.1 µM [falling, single point] | 29.1 µM [falling, single point]
9 | Cn1nc(-c2ccc(Cl)cc2)c2cc(C(=O)NC3CC3)sc21 | 6.6 | 29.1 µM [falling, single point] | 
10 | CC(C)C(NC(=O)C1CCCCC1)C(=O)Nc1ccncc1 (stereo unspecified) | 49.9 | 20.6 µM [rising, single point] | 23.1 µM [rising, partial curve]
11 | COc1ccc(Cl)cc1NC(=O)C/C(C)=N/NC(=O)CC#N |  | 6.51 µM [falling, single point] | 
12 | CCOC(=O)C1CCCN(C(=O)/C=C/c2ccc(Cl)cc2)C1 (stereo unspecified) | 4.1 |  | 0.562 µM [falling, full curve, poor fit]
13 | O=C(/C=C/c1ccccc1)NC(NC(=S)Nc1ccc(Cl)cc1)C(Cl)(Cl)Cl (stereo unspecified) | -10.5 |  | 
14 | CCSc1nc2ccccc2n1CC(=O)N1CCCCC1 | 11.7 | 0.00651 µM [falling, full curve, poor fit] | 
15 | Cc1cccc(OCCCCCn2ccnc2)c1C | -18.4 |  | 
16 | O=C(Nc1ccc(CN2CCOCC2)cc1)c1cc2ccccc2o1 | 44.7 | 2.06 µM [rising, partial curve] | 1.84 µM [rising, single point]
17 | CCN(CC(=O)Nc1ccccc1OC)C(=O)CN1C(=O)NC(C)(c2ccc(C)cc2)C1=O (stereo unspecified) | 13.5 | 16.4 µM [falling, partial curve, poor fit] | 
18 | COCCOC(=O)C1=C(C)NC2=C(C(=O)CCC2)C1c1cc2c(cc1Br)OCO2 (stereo unspecified) | 17.8 | 2.59 µM [rising, full curve, poor fit] | 
19 | O=S(=O)(Cc1cc(-c2ccc(Cl)cc2)no1)c1ccccc1 | 154 | 10.3 µM [rising, partial curve] | 0.013 µM [rising, full curve, poor fit]

Quoted at random: 3 compounds from above
Row | Compound | cell number change [%] | AC50 [1] | AC50 [2]
4 | CCCC1Cc2c(sc3nc(SC)nc(N)c23)CO1 (stereo unspecified) | 1.93 | 0.146 µM [falling, full curve, poor fit] | 
8 | CN(C)/C=C(\c1cnc(Cl)s1)S(=O)(=O)c1ccccc1 | -36.6 | 29.1 µM [falling, single point] | 29.1 µM [falling, single point]
12 | CCOC(=O)C1CCCN(C(=O)/C=C/c2ccc(Cl)cc2)C1 (stereo unspecified) | 4.1 |  | 0.562 µM [falling, full curve, poor fit]

Further records

Row | Compound | cell number change [%] | AC50 [1] | AC50 [2]
20 | CCOC(=O)/C(=N\Nc1ccc(OC)cc1)c1csc(Nc2ccccc2)n1 | -82.5 | 3.26 µM [rising, partial curve] | 
21 | COc1ccc2cc(CCNC(=O)c3ccc(S(=O)(=O)N4CCOCC4)cc3)c(=O)[nH]c2c1 | -34.5 |  | 18.4 µM [falling, partial curve, poor fit]
22 | COc1ccc(CNC(=O)C2CCCN(C(=O)Nc3ccc(OC)cc3)C2)cc1 (stereo unspecified) | 4.35 | 29.1 µM [rising, single point] | 
23 | O=C(O)CCCN=CC1=C(O)CNC1=O | -37.5 | 0.231 µM [falling, full curve] | 0.00517 µM [falling, full curve, poor fit]
24 | O=[N+]([O-])c1ccc(F)cc1OCc1nc(-c2cccs2)no1 | 22.1 | 3.26 µM [rising, partial curve] | 
25 | Cn1c(/C=C/c2ccccc2)nc2ccccc21 | 22.2 | 0.82 µM [rising, full curve, poor fit] | 
26 | CCCCNC(=O)CSc1nnc(Cc2ccc(Cl)c(Cl)c2)c(=O)[nH]1 | -18.3 |  | 0.0651 µM [falling, full curve, poor fit]
27 | Nc1ccccc1SC(C[N+](=O)[O-])c1ccccc1 (stereo unspecified) | -57.9 | 16.4 µM [falling, single point] | 20.6 µM [falling, single point]
28 | Cc1ccc(C2=C(c3ccc([N+](=O)[O-])cc3)C(=O)OC2)cc1C | 46 | 7.31 µM [rising, partial curve, poor fit] | 6.51 µM [rising, partial curve]
29 | CCOC(=O)c1cc(-c2ccc(C)cc2)n(CCC(=O)N2CCN(c3ccccn3)CC2)c1C | 36.9 | 8.2 µM [rising, partial curve] | 5.17 µM [rising, partial curve]
30 | CCOC(=O)/C(=N\Nc1ccccc1Cl)N1CCN(Cc2ccccc2)CC1 | -21.2 | 16.4 µM [falling, single point] | 
31 | O=C1CCCCN1CCCC(=O)N1CCCC(Nc2ccc(F)c(F)c2)C1 (stereo unspecified) | -16.1 | 0.82 µM [rising, single point] | 
32 | c1ccc2[nH]c(CSc3ncnc4c3oc3ccccc34)nc2c1 |  | 6.51 µM [falling, single point] | 
33 | O=C(Nc1ccccc1-c1nnn(CC(=O)N2CCOCC2)n1)c1ccc(F)cc1 | -40.8 | 29.1 µM [falling, single point] | 29.1 µM [falling, single point]
34 | CCC1CCCCN1CCCNC(=O)CS(=O)Cc1nc(-c2ccc(OC)c(OC)c2)oc1C (stereo unspecified) | 27.4 |  | 
35 | CC(C)C(=O)Nc1ccccc1N1CCN(C(=O)c2ccccc2)CC1 | 21.9 | 0.58 µM [rising, single point] | 
36 | Cc1cccc(-n2cnc(C(=O)NNC(=S)Nc3ccc(Cl)cc3)c2)n1 | 7.95 |  | 4.11 µM [rising, single point]
37 | CCOC(=O)[C@H]1[C@H]2COc3ccc(Cl)cc3[C@@H]2N2C(=O)c3cc(Cl)ccc3NC(=O)[C@@]12C | -36.6 |  | 16.4 µM [falling, single point]
38 | COC(=O)c1sc(NC(=O)COc2cccc(C)c2)nc1C | 14.6 | 20.6 µM [rising, single point] | 

Row | Compound | cell number change [%] | AC50 [1] | AC50 [2]
39 | COc1ccc(S(=O)(=O)N2CCN(C(=O)c3ccccn3)CC2)cc1 | -101 |  | 25.9 µM [falling, partial curve, poor fit]
40 | CC(=O)Nc1ccc(-c2csc(NC(=O)C3CC(=O)N(c4ccc5c(c4)OCCO5)C3)n2)cc1 (stereo unspecified) | 16.5 | 1.46 µM [rising, partial curve] | 
41 | C/C(N)=C(/C#N)C(=O)COc1ncnc2ccc(Br)cc12 | 23.5 | 3.26 µM [rising, partial curve] | 
42 | O=C(NCCc1ccccc1)C(=O)N/N=C/c1ccc2c(c1)OCO2 |  |  | 0.731 µM [falling, full curve, poor fit]
43 | CCOc1ccc(C(=O)NC2CC3CCCC(C2)N3CC(C)C)cc1 (stereo unspecified) | -39.8 |  | 4.61 µM [falling, full curve, poor fit]
44 | Cc1oc(-c2ccccc2Cl)nc1CN1CCCN(C(=O)c2ccco2)CC1 | -1.67 | 0.0058 µM [falling, full curve, poor fit] | 
45 | COCCNC(=S)N(CCN(C)C)Cc1cc2cc3c(cc2[nH]c1=O)OCO3 | 6.93 | 29.1 µM [rising, partial curve, poor fit] | 
46 | CC(C)CN(C(=O)CSc1nc(-c2ccccc2)cn1N)c1c(N)n(Cc2ccccc2)c(=O)[nH]c1=O | 22.2 | 13 µM [rising, partial curve] | 
47 | CCC(C)Nc1ncnc2c1cnn2Cc1ccc(Cl)cc1 (stereo unspecified) | 1.63 | 0.164 µM [rising, full curve, poor fit] | 1.03 µM [falling, full curve]
48 | Cc1nn(C)c(C)c1-c1c(C#N)c(N)nc2c1CCCCCC2 | 13.3 | 9.2 µM [rising, partial curve, poor fit] | 
49 | CN(C)c1nc(-c2ccccc2)c2cc(Cl)ccc2n1 | -1.53 | 6.51 µM [falling, partial curve] | 
50 | COCCn1c(=O)[nH]c2cc(C(=O)NCCCN3CCN(c4ccc(F)cc4)CC3)ccc2c1=O | -3.75 | 29.1 µM [falling, single point] | 
51 | COC(=O)Cc1ccc(OC(=O)CCS(=O)(=O)c2ccc(Cl)cc2)cc1 | -23.8 | 0.651 µM [falling, full curve, poor fit] | 
52 | COc1ccc(S(=O)(=O)N2CCOC2CNC(=O)C(=O)NCc2cccnc2)cc1OC (stereo unspecified) | 20.1 | 11.6 µM [rising, partial curve] | 
53 | CC(C)CC(=O)NC(=S)Nc1ccccc1C(F)(F)F | -0.987 | 0.291 µM [falling, partial curve, poor fit] | 
54 | Cc1nc2ccccn2c1C(=O)NNC(=O)Nc1cccc(C(F)(F)F)c1 |  | 6.51 µM [falling, single point] | 
55 | CCOc1ccccc1C(=O)N(C)CC(=O)Nc1ccc(OC)cc1 | 25 | 29.1 µM [rising, single point] | 
56 | CCC(CC)NC(=O)c1cccc(Oc2ccccc2)c1 | 0.524 |  | 6.51 µM [falling, single point]
57 | O=C(Nc1ccccc1)Nc1cccc(-c2nnco2)c1 | -7.04 | 29.1 µM [rising, single point] | 
